Laboratory results: PubChem BioAssay AID1508588 (Peter MacCallum Cancer Centre, 2020)
Screen: 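Genome-wide search for knock-downs that heighten vemurafenib action in melanoma cells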 (primary screen). Cell system: human WM266.4 melanoma cells (BRAF V600 mutant). Reagents: siRNA pool against human genes, 40 nM. Time to read-out: 96 h from transfection to read-out. Challenge: vemurafenib 300 nM (about IC25), added 48 h after transfection, for 48 h; comparison arm got DMSO vehicle only. Read-out: 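Ratios to non-targeting siRNA for cell gain, counted as DAPI nuclei after minus before drug and averaged over two replicates, and for absorbance-read medium lactate per cell; both binned into fold-change classes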. Reading the numbers: cell gain with vemurafenib: higher = more cell gain than with non-targeting siRNA; lactate per cell with vemurafenib: higher = more lactate made per cell. Call rule: 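Enhancement is called by pairing each knock-down's vehicle-arm and drug-arm fold-change classes for viability or glycolysis; which class combinations qualify is not given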. Meaning of the calls: active = enhances vemurafenib effect; inactive = no enhancement seen.
Shown is one part, drawn at random, of about 18,000 deposited reagents. Over the whole deposit, 790 (4.4%) are marked active. 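Calls rest on a combination of fold-change classes in drug and vehicle arms, not all shown here.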

| target gene | cell gain with vemurafenib | lactate per cell with vemurafenib | activity call |
| --- | --- | --- | --- |
| HSPBP1 | 0.74 | 0.72 | inactive |
| ZNF608 | 0.31 | 1.18 | inactive |
| MSX2 | 0.91 | 0.96 | inactive |
| BCL7B | 0.63 | 1.43 | inactive |
| RAB10 | 0.42 | 0.96 | inactive |
| SUSD6 | 0.38 | 1.51 | inactive |
| RTL8B | 0.47 | 1.64 | inactive |
| NKX2-5 | 0.96 | 0.61 | inactive |
| FAM216B | 0.94 | 1.08 | inactive |
| BSCL2 | 0.66 | 0.45 | active |
| CDC42EP5 | 0.07 | 2.73 | inactive |
| PHACTR4 | 0.92 | 0.78 | inactive |
| PLPP7 | 1.21 | 0.64 | inactive |
| CREB3L3 | 0.68 | 0.58 | inactive |
| PRPS1L1 | 0.59 | 0.88 | inactive |
| DSPP | 0.08 | 0.88 | inactive |
| CELA1 | 0.37 | 0.48 | active |
| PMPCB | 0.99 | 1.15 | inactive |
| ILDR1 | 0.48 | 1 | inactive |
| LRP6 | 0.7 | 0.88 | inactive |
| CHMP4A | 0.72 | 0.64 | inactive |
| ALB | 0.84 | 0.63 | inactive |
| APOBEC3C | 0.41 | 1.51 | inactive |
| EGR4 | 0.56 | 1.55 | inactive |
| ARFIP1 | 0.06 | 2.41 | inactive |
| NAGK | -0.03 | 3.38 | inactive |
| C8orf58 | 0.65 | 0.78 | inactive |
| PPP1R14B | 0.9 | 0.64 | inactive |
| ABL1 | 0.61 | 1.06 | inactive |
| FEM1A | 0.89 | 0.82 | inactive |
| PCDHB2 | 0.82 | 0.55 | inactive |
| THOC3 | 0.4 | 1.46 | inactive |
| LY6K | 0.74 | 0.71 | inactive |
| MRPS24 | 0.69 | 1.01 | inactive |
| ZC4H2 | 0.19 | 1.77 | inactive |
| GNAT2 | 0.91 | 1.31 | inactive |
| UHRF2 | 0.14 | 1 | inactive |
| CLECL1 | 0.59 | 0.36 | active |
| FBL | 0.14 | 0.66 | inactive |
| CENPF | 0.78 | 1.01 | inactive |
| TM9SF1 | 1.3 | 0.57 | inactive |
| DSCR9 | 1.36 | 0.68 | inactive |
| PGBD5 | 0.93 | 0.67 | inactive |
| GRHL1 | 0.74 | 0.64 | inactive |
| EIF4H | 0.52 | 0.89 | inactive |
| PEBP1 | 0.83 | 0.88 | inactive |
| RTP5 | 0.71 | 1.01 | inactive |
| CASS4 | 0.35 | 1.02 | inactive |
| CCNY | 0.63 | 1 | inactive |
| KLHL25 | 0.6 | 0.94 | inactive |
| CLDN11 | 0.95 | 1.05 | inactive |
| MRPL21 | 0.68 | 1.39 | inactive |
| PCK2 | 0.85 | 0.71 | inactive |
| RPS17P16 | 0.79 | 0.68 | inactive |
| OR51B4 | 0.86 | 0.45 | inactive |

5 entries from above, set out differently.
CCNY
- cell gain with vemurafenib: 0.63
- lactate per cell with vemurafenib: 1
- activity call: inactive

KLHL25
- cell gain with vemurafenib: 0.6
- lactate per cell with vemurafenib: 0.94
- activity call: inactive

CLDN11
- cell gain with vemurafenib: 0.95
- lactate per cell with vemurafenib: 1.05
- activity call: inactive

MRPL21
- cell gain with vemurafenib: 0.68
- lactate per cell with vemurafenib: 1.39
- activity call: inactive

PCK2
- cell gain with vemurafenib: 0.85
- lactate per cell with vemurafenib: 0.71
- activity call: inactive

Additional reagents follow:
| target gene | cell gain with vemurafenib | lactate per cell with vemurafenib | activity call |
| --- | --- | --- | --- |
| CREBL2 | 0.44 | 0.68 | inactive |
| NID1 | 0.82 | 0.7 | inactive |
| RACK1 | 0.43 | 0.28 | inactive |
| KATNA1 | 0.39 | 1.1 | inactive |
| H3C2 | 1.23 | 1.12 | inactive |
| MXI1 | 0.76 | 1.17 | inactive |
| DOK5 | 0.56 | 0.56 | inactive |
| SERPINB3 | 0.74 | 0.98 | inactive |
| POLR1B | 0.3 | 0.82 | inactive |
| LHX4 | 0.92 | 0.87 | inactive |
| MTCH1 | 0.78 | 0.65 | inactive |
| TNP2 | 0.67 | 0.86 | inactive |
| POLE2 | 0.26 | 1.66 | inactive |
| LACTB | 0.81 | 0.73 | inactive |
| SENP1 | 1.07 | 0.48 | inactive |
| ATP6V1A | 0.63 | 0.91 | inactive |
| ADAMTSL1 | 0.59 | 0.9 | inactive |
| CDH16 | 0.31 | 2.17 | inactive |
| TWF1 | 0.94 | 0.91 | inactive |
| IFITM3 | 0.35 | 1.1 | inactive |
| S100A6 | 0.53 | 0.68 | inactive |
| KRT79 | 0.58 | 0.7 | inactive |
| OR52B4 | 0.02 | 1.79 | inactive |
| OR52A4P | 0.8 | 0.4 | inactive |
| FOXS1 | 0.16 | 1.05 | inactive |
| ALKBH8 | 0.85 | 0.64 | inactive |
| LILRA2 | 0.5 | 1.46 | inactive |
| C9orf153 | 1.01 | 1.02 | inactive |
| RAB42 | 1.19 | 0.43 | inactive |
